Binding data for three molecules are collected here from article PMC7295576.

No constants are given. Whether binding was seen depends on the method and setting. Binding seen in cells or lysates may run through a third protein. For some of these results: Binding calls can cover weak binding; strength is not graded here. Tags and fused reporters may be left off the sequences shown.

In assay [1] the target is HA-tagged Vpr (HIV-1 NL4-3) (HIV-1 NL4-3). Kind of assay: co-IP; HA-Vpr and V5-tagged proteins co-expressed in 293T cells, 10 µM MG132 for 4 hr; lysis in 50 mM Tris pH 7.4, 150 mM NaCl, 0.5 mM EDTA, 1% digitonin; anti-HA monoclonal antibody and Protein G Sepharose 3 hr at 4°C; Western blot. For orientation: Immunoblotting shows a protein as a band on a membrane.
Assay [2] concerns the target GST-Vpr mutant Q65R (HIV-1 NL4-3). Kind of assay: pull-down; GST or GST-Vpr co-expressed with HA-tagged CCDC137 in 293T cells, MG132 for 4 hr; lysis in 50 mM Tris pH 7.4, 150 mM NaCl, 5 mM EDTA, 5% glycerol, 1% Triton X-100; glutathione sepharose 4 hr at 4°C; Western blot.
The target in assay [3] is GST-Vpr WT (glutathione S-transferase fused to HIV-1 NL4-3 Vpr) (HIV-1 NL4-3). The description is as above.

B1: V5-tagged ribosomal RNA processing protein 1 (RRP1) (protein, UniProt P56182 1-461)
chain: MVSRVQLPPEIQLAQRLAGNEQVTRDRAVRKLRKYIVARTQRAAGGFTHDELLKVWKGLFYCMWMQDKPLLQEELGRTISQLVHAFQTTEAQHLFLQAFWQTMNREWTGIDRLRLDKFYMLMRMVLNESLKVLKMQGWEERQIEELLELLMTEILHPSSQAPNGVKSHFIEIFLEELTKVGAEELTADQNLKFIDPFCRIAARTKDSLVLNNITRGIFETIVEQAPLAIEDLLNELDTQDEEVASDSDESSEGGERGDALSQKRSEKPPAGSICRAEPEAGEEQAGDDRDSGGPVLQFDYEAVANRLFEMASRQSTPSQNRKRLYKVIRKLQDLAGGIFPEDEIPEKACRRLLEGRRQKKTKKQKRLLRLQQERGKGEKEPPSPGMERKRSRRRGVGADPEARAEAGEQPGTAERALLRDQPRGRGQRGARQRRRTPRPLTSARAKAANVQEPEKKKKRRE
Take B1: the binding entry in assay [1] was “no binding”.

B2: HA-tagged wild-type CCDC137 (protein, UniProt Q6PK04 1-289)
chain: MAGAGRGAAVSRVQAGPGSPRRARGRQQVQPLGKQRPAPWPGLRSKEKKKVNCKPKNQDEQEIPFRLREIMRSRQEMKNPISNKKRKKAAQVTFRKTLEKEAKGEEPDIAVPKFKQRKGESDGAYIHRMQQEAQHVLFLSKNQAIRQPEVQAAPKEKSEQKKAKKAFQKRRLDKVRRKKEEKAADRLEQELLRDTVKFGEVVLQPPELTARPQRSVSKDQPGRRSQMLRMLLSPGGVSQPLTASLARQRIVEEERERAVQAYRALKQRQQQLHGERPHLTSRKKPEPQL
Take B2: the binding result in assay [2] is listed as “no binding”; in assay [3] it was “binds”.

B3: V5-tagged CCDC137 (protein, UniProt Q6PK04 1-289)
chain: MAGAGRGAAVSRVQAGPGSPRRARGRQQVQPLGKQRPAPWPGLRSKEKKKVNCKPKNQDEQEIPFRLREIMRSRQEMKNPISNKKRKKAAQVTFRKTLEKEAKGEEPDIAVPKFKQRKGESDGAYIHRMQQEAQHVLFLSKNQAIRQPEVQAAPKEKSEQKKAKKAFQKRRLDKVRRKKEEKAADRLEQELLRDTVKFGEVVLQPPELTARPQRSVSKDQPGRRSQMLRMLLSPGGVSQPLTASLARQRIVEEERERAVQAYRALKQRQQQLHGERPHLTSRKKPEPQL
As to B3, the binding entry in assay [1] is listed as “binds”.
